From article PMC5037330, “Large-Scale Movements of IF3 and tRNA during Bacterial Translation Initiation” (Cell, 2016)
Results are given in words; binding and its absence hold for the method and conditions named. Some results given as binding are weak or reduced against the parent protein; the word gives no strength.

Target: T1, IF1 Thermus thermophilus (Thermus thermophilus) (UniProt Q5SHR1)
T1 sequence: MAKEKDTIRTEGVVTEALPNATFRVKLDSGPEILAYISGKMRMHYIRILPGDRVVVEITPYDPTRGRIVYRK
Experiment: cryo-EM structure; Sample 2 (with IF2): 30S:IF1:IF2:IF3:tRNA:mRNA 1:3:3:3:3:3, complex at 100 nM, IF2 preincubated with 0.2 mM GDPCP, 10 mM MES pH 6.5, 5 mM MgOAc, 50 mM KCl, 10 mM NH4Cl, 6 mM BME; put on grids without further purification; classes PIC-I to PIC-III; both purified

B1: IF2 Thermus thermophilus (protein, UniProt P48515 1-571)
chain: MAKVRIYQLAKELGMETQELLELLDQMGVAYKSHASTLEEKDAEAVRELVKEQRGLQEKLAEEERRKSLPRRPPVVVIMGHVDHGKTTLLDYLRKSRIAEKEAGGITQHVGAFEVKTPQGTVVFIDTPGHEAFTTIRQRGAKVADIAVIVIAADDGIMPQTEEAIAHAKAAGAKLIFAINKIDLPQADPEKVKRQLMERGFVPEEYGGDAIVIPISAKTGQGVQDLLEMILLLAELEDYRADPNAEPRGVILESKLDKQAGIIANMLVQEGTFRVGDYVVAGEAYGRIRAMMDADGNQRKEAGPGSAVQVLGFQELPHAGDVVEWVPDLEAAKEIAEERKEERKAREEEEKARRPRTMAELLRAMQEEGRKELNLILRADTQGSLEAIQHILARESTEDVKINILLAQVGAPTESDVLLAQTANAAILAFGVNPPGSVKKKAEEKGVLLKTFRIIYDLVDEVRNMVKGQREPQYKEEVLGQAEVRAIFRLPTGKQVAGCMVTQGRIPRNAEVRVLRDGQVIWQGRIASLKRFKEDVREVAQGYECGIGLDGFDDFREGDVIEAFQMVEVPA
binding: binds
